Data as given in paper PMC4133157.

Key:
[1] = biological target: T1, 3XFLAG::UNC-40 (HEK293T) (C. elegans) (UniProt G5EF96); experiment: co-IP; as a1, FLAG-tagged UNC-40 in HEK293 cells with co-expressed UNC-6, or UNC-6 and EVA-1; luciferase-tagged MADD-4 in the immunoprecipitate
T1 sequence: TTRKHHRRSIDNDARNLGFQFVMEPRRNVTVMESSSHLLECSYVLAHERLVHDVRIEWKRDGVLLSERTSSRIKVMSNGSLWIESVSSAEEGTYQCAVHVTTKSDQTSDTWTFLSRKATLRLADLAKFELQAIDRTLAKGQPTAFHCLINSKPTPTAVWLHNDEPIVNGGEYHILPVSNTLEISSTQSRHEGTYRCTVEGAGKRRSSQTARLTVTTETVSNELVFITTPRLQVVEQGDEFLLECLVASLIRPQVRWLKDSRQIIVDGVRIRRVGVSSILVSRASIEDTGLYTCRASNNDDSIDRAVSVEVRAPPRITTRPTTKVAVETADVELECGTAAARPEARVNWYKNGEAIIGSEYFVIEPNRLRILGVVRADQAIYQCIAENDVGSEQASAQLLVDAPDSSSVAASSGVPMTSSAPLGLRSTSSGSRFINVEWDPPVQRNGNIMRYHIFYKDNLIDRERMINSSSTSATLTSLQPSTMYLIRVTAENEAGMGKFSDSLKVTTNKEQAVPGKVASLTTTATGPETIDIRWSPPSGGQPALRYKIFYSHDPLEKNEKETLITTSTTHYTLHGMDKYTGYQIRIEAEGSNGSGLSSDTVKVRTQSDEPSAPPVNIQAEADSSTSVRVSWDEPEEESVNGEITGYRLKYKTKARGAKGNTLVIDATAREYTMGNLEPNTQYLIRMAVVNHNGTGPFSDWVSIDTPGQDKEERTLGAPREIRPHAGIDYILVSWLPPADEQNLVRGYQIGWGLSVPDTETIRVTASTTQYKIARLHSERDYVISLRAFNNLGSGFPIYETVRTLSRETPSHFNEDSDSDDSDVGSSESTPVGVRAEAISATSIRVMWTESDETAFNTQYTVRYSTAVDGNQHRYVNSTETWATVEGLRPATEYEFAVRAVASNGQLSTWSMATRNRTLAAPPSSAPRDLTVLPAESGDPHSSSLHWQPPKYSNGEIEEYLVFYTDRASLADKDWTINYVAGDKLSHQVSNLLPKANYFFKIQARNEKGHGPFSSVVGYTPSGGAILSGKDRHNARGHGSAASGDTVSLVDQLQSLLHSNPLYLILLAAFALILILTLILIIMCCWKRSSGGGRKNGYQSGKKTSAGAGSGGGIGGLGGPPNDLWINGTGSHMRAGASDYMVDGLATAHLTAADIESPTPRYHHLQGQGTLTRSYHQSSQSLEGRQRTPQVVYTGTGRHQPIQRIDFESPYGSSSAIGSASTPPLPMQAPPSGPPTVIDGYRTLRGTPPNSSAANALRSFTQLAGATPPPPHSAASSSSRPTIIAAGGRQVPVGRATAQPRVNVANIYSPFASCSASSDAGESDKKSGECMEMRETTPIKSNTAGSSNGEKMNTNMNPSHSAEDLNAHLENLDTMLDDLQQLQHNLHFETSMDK

[2] = biological target: T2, 3XFLAG::EVA-1 (HEK293T) (C. elegans) (UniProt Q9XU98); experiment: co-IP; FLAG-tagged receptor on transfected HEK293T cells incubated with 10x concentrated conditioned medium holding the HA- and Gaussia luciferase-tagged ligand, 4 hours at 4°C; cells lysed in TNTE buffer (0.5% Triton X-100), anti-FLAG immunoprecipitation, luciferase activity of the washed immunoprecipitate, normalised to receptor level
T2 sequence: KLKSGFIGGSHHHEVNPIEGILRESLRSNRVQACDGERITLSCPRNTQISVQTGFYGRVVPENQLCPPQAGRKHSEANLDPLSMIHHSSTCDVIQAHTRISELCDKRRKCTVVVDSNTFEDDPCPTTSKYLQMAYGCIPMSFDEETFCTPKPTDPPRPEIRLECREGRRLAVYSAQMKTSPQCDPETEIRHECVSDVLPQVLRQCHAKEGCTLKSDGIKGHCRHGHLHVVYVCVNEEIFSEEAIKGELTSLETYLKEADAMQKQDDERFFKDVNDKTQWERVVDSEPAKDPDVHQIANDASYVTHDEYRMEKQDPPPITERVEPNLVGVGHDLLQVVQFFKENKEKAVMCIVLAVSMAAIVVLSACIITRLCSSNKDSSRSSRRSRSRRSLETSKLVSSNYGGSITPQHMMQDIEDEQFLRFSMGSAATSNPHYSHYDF

[3] = biological target: T1, 3XFLAG::UNC-40 (HEK293T) (C. elegans); experiment: as above

Measured: binding

HA::MADD-4B::Gaussia luciferase (C. elegans) (ligand)
binds: all assays above

No constants are given. Whether binding was seen depends on the method and setting. Binding seen in cells or lysates may run through a third protein. Binding calls can cover weak binding; strength is not graded here. Where a sequence is shown, tags or fusion partners need not be part of it.
